Experimental data as given in article PMC4541044.
These are yes or no findings as the source states them, for the method shown. In cells and extracts the contact can be indirect. These calls come from enrichment with a bait or labelling near it, and not all partners need be listed.

The chains behind the UniProt entries cited, without tags or fusion partners.
UniProt Q99814: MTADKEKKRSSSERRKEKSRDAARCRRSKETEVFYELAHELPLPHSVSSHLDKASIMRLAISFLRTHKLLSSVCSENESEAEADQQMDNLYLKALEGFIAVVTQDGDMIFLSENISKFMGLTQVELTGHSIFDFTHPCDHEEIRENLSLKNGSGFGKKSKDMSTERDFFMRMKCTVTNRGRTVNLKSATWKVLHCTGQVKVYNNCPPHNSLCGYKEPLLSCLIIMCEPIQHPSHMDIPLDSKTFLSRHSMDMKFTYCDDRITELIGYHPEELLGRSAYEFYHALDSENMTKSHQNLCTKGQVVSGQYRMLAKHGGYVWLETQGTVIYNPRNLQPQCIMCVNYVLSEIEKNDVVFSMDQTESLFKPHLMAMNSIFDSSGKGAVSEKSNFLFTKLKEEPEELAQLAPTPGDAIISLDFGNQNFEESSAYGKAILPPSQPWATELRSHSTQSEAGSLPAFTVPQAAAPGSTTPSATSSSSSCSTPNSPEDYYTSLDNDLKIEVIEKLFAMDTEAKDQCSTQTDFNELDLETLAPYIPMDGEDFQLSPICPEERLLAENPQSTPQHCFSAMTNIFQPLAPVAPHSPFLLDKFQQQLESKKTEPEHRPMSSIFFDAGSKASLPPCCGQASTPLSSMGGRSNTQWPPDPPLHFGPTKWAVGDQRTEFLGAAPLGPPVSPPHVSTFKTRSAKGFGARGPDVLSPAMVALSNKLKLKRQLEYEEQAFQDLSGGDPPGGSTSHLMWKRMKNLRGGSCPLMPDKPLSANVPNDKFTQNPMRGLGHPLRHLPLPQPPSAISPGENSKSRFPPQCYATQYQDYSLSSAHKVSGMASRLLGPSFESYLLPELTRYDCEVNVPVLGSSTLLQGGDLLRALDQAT
UniProt Q6GQQ9: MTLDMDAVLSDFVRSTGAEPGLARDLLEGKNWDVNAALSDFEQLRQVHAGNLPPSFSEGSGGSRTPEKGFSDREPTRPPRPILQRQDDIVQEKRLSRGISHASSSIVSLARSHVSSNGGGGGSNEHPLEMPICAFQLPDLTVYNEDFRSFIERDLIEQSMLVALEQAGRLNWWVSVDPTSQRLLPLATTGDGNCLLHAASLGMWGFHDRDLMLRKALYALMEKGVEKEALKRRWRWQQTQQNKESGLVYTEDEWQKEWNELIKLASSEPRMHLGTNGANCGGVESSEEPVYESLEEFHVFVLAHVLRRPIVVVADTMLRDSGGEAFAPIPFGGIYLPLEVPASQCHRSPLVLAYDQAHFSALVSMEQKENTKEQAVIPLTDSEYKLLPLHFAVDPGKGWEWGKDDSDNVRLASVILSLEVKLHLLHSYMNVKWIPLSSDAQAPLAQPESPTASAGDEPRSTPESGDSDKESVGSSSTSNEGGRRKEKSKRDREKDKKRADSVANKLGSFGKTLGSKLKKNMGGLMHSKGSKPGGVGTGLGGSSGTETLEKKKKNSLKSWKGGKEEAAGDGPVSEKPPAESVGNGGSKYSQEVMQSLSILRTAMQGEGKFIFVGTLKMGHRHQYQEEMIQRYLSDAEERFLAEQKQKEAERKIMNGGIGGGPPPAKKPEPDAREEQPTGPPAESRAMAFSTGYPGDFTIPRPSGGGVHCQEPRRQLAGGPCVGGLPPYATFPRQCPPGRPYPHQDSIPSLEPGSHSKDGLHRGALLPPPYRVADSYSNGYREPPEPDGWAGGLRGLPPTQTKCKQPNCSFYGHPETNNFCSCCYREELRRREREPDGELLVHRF

Molecular target: HIF2α (encoded by EPAS1) (human (endogenous in HeLa)) (UniProt Q99814)
Assay: affinity purification with mass spectrometry; HeLa cells, 24 h at 1% O2; detergent-free lysis buffer (50 mM Tris-HCl pH 8, 150 mM NaCl, 2 mM EDTA, 1 mM DTT); immunoprecipitation with anti-HIF2α antibody [EPAS-1 (A-5)]; triplicate; Orbitrap Velos

binding: binds
Substance: Cezanne (OTUD7B), endogenous (from UniProt Q6GQQ9 1-843) (enzyme)
